Measured values taken from patent US20240415967A1, “DEGRADABLE NEAR-INFRARED PHOTOSENSITIZERS, PREPARATION METHODS, APPLICATIONS THEREOF” (BEIJING INSTITUTE OF COLLABORATIVE INNOVATION, priority 2021, published 2024).

Assays:
Hela cells [1] = assay: Cell fluorescence imaging with lysosomal green fluorescence probe; type: cell-based, human; details: 10 μM
[2] = Detection of depth of in vivo fluorescence imaging; set-up: species or system BALB/C nude mice; details: 0.2 mg/kg subcutaneous, excitation 710 nm, collection 750 nm
Hela cells [3] = assay: Photodegradation process of a photosensitizer in cells (confocal fluorescence imaging); type: cell-based, human; details: 10 μM, 700 nm 10 mW/cm^2
[4] = Photodegradation process of a photosensitizer at an animal level (in vivo fluorescence imaging of tumor); set-up: species or system BALB/C nude mice; details: 0.2 mg/kg in situ, 700 nm 100 mW/cm^2

C[N+](C)(C)c1c(F)c(F)c(C2=C3C(=O)OC4=[N+]3[Zn]35[n]6c2ccc6-c2c(oc6c(F)c([N+](C)(C)C)c(F)c(F)c26)[N+]3=c2oc3c(F)c([N+](C)(C)C)c(F)c(F)c3c2=c2ccc([n]25)=C4c2c(F)c(F)c([N+](C)(C)C)c(F)c2F)c(F)c1F (centres unmarked) [target product]
fluorescence signal in cells (Hela cells [1]; 12 h incubation, excitation 700 nm, 715 nm high-pass, FIG. 19): relatively strong fluorescence signal
subcellular localization (overlap with lysosomal probe) (Hela cells [1]; FIG. 20): may be in the lysosome
in vivo fluorescence signal at a depth of 1 mm [2]: strong fluorescence signal
in vivo fluorescence signal at a depth of 4 mm [2]: slightly attenuated
in vivo fluorescence signal at a depth of 7 mm [2]: further weakened
in vivo fluorescence signal at a depth of 10 mm [2]: still effectively detected
fluorescence signal in cells, irradiation for 0 min (Hela cells [3]): relatively strong fluorescence signal
fluorescence signal in cells, irradiation for 5 min (Hela cells [3]): significantly weakened
fluorescence signal in cells, irradiation for 10 min (Hela cells [3]): completely quenched
fluorescence signal in the mouse tumor, irradiation for 0 min [4]: relatively strong fluorescence signal
fluorescence signal in the mouse tumor, irradiation for 5 min [4]: significantly weakened
